Experimental data from patent publication EP4724483A2.
Residue numbers refer to the chain shown, from its start. Results are given in words; binding and its absence hold for the method and conditions named. Some entries that bind do so weakly or less than the wild type. For some of these results: Where a sequence is shown, tags or fusion partners need not be part of it.

The chains behind the UniProt entries cited, without tags or fusion partners. Residues count along the entry.
UniProt Q08334, residues 20-220: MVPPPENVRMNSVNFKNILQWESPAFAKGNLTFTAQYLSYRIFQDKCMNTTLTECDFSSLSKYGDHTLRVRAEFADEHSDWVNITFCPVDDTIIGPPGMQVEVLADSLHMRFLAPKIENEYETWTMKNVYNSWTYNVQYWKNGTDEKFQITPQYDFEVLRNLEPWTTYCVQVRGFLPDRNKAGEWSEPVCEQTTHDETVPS

T1: Fc-fused IL-10Rα receptor (UniProt Q13651)
T1 sequence (looked up): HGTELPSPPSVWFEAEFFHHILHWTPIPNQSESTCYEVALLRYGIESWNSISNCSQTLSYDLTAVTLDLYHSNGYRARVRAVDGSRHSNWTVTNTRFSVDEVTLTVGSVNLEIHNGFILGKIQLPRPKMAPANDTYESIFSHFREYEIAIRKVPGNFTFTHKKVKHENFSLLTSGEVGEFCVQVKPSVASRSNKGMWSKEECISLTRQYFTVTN

B1: DR2463, humanized IL-10Rα/IL-10Rβ VHH dimer (IL-10 agonist compound of Table 1) (bispecific antibody)
chain: EVQLLESGGGLVQAGGSLRLSCAASGYSNCAYDMTWYRQAPGKEREFVSAIHSDGSTRYADSVKGRFFISRDNSKNTVYLQMNSLRPEDTAVYYCKTDPLHCRAHGGSWYSVRANYWGQGTLVTVSSGGGSEVQLVESGGGLVQPGGSLRLSCAASGYTHSSYCMGWVRQAPGKGLEGVSAIDVDGSTTYADSVKGRFTISRDNSKNTLYLQMNSLRAEDTAVYYCAAEFADCSSNYFLPPGAVRYWGQGTLVTVSSASHHHHHH
B2: DR2503, humanized IL10Rα-IL10Rβ VHH dimer (IL-10 agonist compound of Table 1) (bispecific antibody)
chain: B1 chain with R58Y
B3: DR2485, humanized IL-10Rα/IL-10Rβ VHH dimer (IL-10 agonist compound of Table 1) (bispecific antibody)
chain: EVQLLESGGGLVQAGGSLRLSCAASGYSNCAYDMTWYRQAPGKEREFVSAIHSDGSTRYADSVKGRFFISRDNSKNTVYLQMNSLRPEDTAVYYCKTDPLHCRAHGGSWYSVRANYWGQGTLVTVSSGGGSEVQLVESGGGLVQPGGSLRLSCAASGYTHSSYCMGWVRQAPGKGLEGVSAIDVDGSTTYADSVKGRFTISRDNSKNTLYLQMNSLRAEDTAVYYCAAEFADCSSNYFLPPGAVRYWGQGTTVTVSS
B4: DR2519, humanized IL-10Rα/IL-10Rβ VHH dimer (IL-10 agonist compound of Table 1) (bispecific antibody)
chain: B3 chain with R58Y
B5: DR2520, humanized IL-10Rα/IL-10Rβ VHH dimer (IL-10 agonist compound of Table 1) (bispecific antibody)
chain: B3 chain with D54S, R58Y

What follows are binders tested against Fc-fused IL-10Rβ receptor (UniProt Q08334) (assay: SPR (Biacore T200), Fc-fused receptor captured, VHH dimer as analyte, 1:1 fit).

binding, binds:
B1
B2
B3
B4
B5

The binders below were run against T1, Fc-fused IL-10Rα receptor in the same assay as above.

binding, binds:
B1
B2
B3
B4
B5
